From PubChem BioAssay AID504467 (National Center for Advancing Translational Sciences (NCATS), 2011)
Out of some 330,000 compounds screened, about 7,700 (2.3%) were called active. Inconclusive means that the source gave no clear call. Such entries were picked first, then a sample of the others. Calls come from the whole dose curve; as a rule, active = well fitted inhibition curve with a large enough effect; inconclusive = small, poorly fitted or top-dose-only effect, or effect the other way; inactive = flat fitted curve, though single readings scatter. Where the call is inconclusive, the potency comes from a doubtful curve fit.

Assay: qHTS screen for small molecules that inhibit ELG1-dependent DNA repair in human embryonic kidney (HEK293T) cells expressing luciferase-tagged ELG1; note: nearly all actives have a fitted effect of over 55% in size
Conditions: HEK293T ELG1-luciferase reporter, luminescence, 16 h, DNA damage induced by 5-fluorouridine; series mostly up to 46.1 µM
In short: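 HEK293T cells expressing luciferase-tagged ELG1 (2,000/well) received 5-Fluorouridine plus compound or DMSO for 16 hr at 37 °C. Luciferase was read by ONE-Glo luminescence after 30 min at room temperature.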
Potency is the fitted concentration of half-maximal effect.

SMILES | Potency
CNc1nc(NC#N)nc(SC)n1 | inactive
O=c1c2oc3ccccc3c2ncn1Cc1ccccc1F | inconclusive: 29.1 µM [activator, single point]
c1ccc(-c2ccc(OCCCNC3CCCC3)cc2)cc1 | inactive
CCCCNC(=S)N(C)/N=C/c1c(F)c(F)c(F)c(F)c1F | inactive
O=C(c1cc(S(=O)(=O)N2CCOCC2)ccc1Cl)N1CCC(Cc2ccccc2)CC1 | inconclusive: 3.26 µM [inhibitor, partial curve]
COc1cccc(CN(C)C(=O)c2ccc3nccnc3c2)c1 | inconclusive: 32.6 µM [inhibitor, single point]
CC(=O)Nc1nc2n(n1)C(c1ccc(Cl)cc1)C=C(C)N2 (stereo not given) | inconclusive: 20.6 µM [activator, partial curve, poor fit]
CC(=O)O[C@H]1[C@H](C)OC=C[C@@H]1OC(C)=O | inactive
CCN(/C=N/c1sc2c(c1C#N)CCCCC2)CC | inconclusive: 9.2 µM [activator, partial curve]
O=C(O)CC(SCC(=O)Nc1ccc(Cl)c(S(=O)(=O)N2CCOCC2)c1)C(=O)O (stereo not given) | inconclusive: 1.64 µM [inhibitor, partial curve, poor fit]
Oc1ccccc1/C=N/Nc1ncc(Br)cn1 | inconclusive: 13 µM [activator, partial curve]
COc1ccc(CNC(=O)C2COc3ccccc3O2)c(OC)c1 (stereo not given) | inconclusive: 20.6 µM [activator, single point]
Cc1ccc(SCCC(=O)Nc2cccc(N(C)S(C)(=O)=O)c2)cc1 | inconclusive: 29.1 µM [inhibitor, single point]
C[C@]12c3[nH]c4ccccc4c3CCN1C(=O)C(CC(=O)NCCN1CCOCC1)C[C@@H]2C(=O)N1CCOCC1 (stereo not given in full) | inconclusive: 13 µM [activator, partial curve, poor fit]
CCN(C(=O)COC(=O)CNS(=O)(=O)c1ccccc1)c1ccccc1 | inactive
CC1CC(C)CN(C(=O)CCCn2c(=S)[nH]c3ccccc3c2=O)C1 (stereo not given) | inconclusive: 11.6 µM [inhibitor, partial curve]
COc1cc(NC(=O)Cn2nc(C(F)(F)F)c3c2CCCC3)cc(OC)c1OC | inconclusive: 14.6 µM [inhibitor, partial curve, poor fit]
COc1ccc(-c2cc3nc(C)cc(NCCO)n3n2)cc1 | inconclusive: 10.3 µM [activator, partial curve, poor fit]
O=C(CSc1nnnn1Cc1ccccc1)Nc1ccccc1 | inactive
CC(=O)c1c(C)[nH]c(C(=O)CSc2ncnc3sc(-c4ccccc4)cc23)c1C | inconclusive: 2.06 µM [inhibitor, partial curve, poor fit]
CCOC(=O)/C=C1\CN(Cc2cc(OC)c(OC)c(OC)c2)S(=O)(=O)c2ccccc21 | inconclusive: 29.1 µM [inhibitor, single point]
O=C(Cc1cccs1)NCc1ccc(F)cc1 | inconclusive: 18.4 µM [activator, single point]
O=C(O)C=C1CCN(c2ncc(C(F)(F)F)cc2Cl)CC1 | inconclusive: 14.6 µM [activator, partial curve]

Random excerpt: three entries already listed, in no set order.
SMILES | Potency
CCOC(=O)/C=C1\CN(Cc2cc(OC)c(OC)c(OC)c2)S(=O)(=O)c2ccccc21 | inconclusive: 29.1 µM [inhibitor, single point]
CCCCNC(=S)N(C)/N=C/c1c(F)c(F)c(F)c(F)c1F | inactive
O=C(O)C=C1CCN(c2ncc(C(F)(F)F)cc2Cl)CC1 | inconclusive: 14.6 µM [activator, partial curve]

Going on with the list:

SMILES | Potency
O=C(CN1C(=O)NC2(CCCCCC2)C1=O)N1CCC(Cc2ccccc2)CC1 | inconclusive: 20.6 µM [inhibitor, single point]
Cc1cccc(N2CCN(C(=O)CCNC(=O)Cn3ccc4ccccc4c3=O)CC2)c1C | inconclusive: 29.1 µM [inhibitor, single point]
O=C(O)CCC(=O)Nc1ccc(-c2nc3ccc(C(=O)c4ccccc4)cc3[nH]2)cc1 | inconclusive: 18.3 µM [activator, single point]
O=c1[nH]n(-c2ccccn2)c(=O)c2ccccc12 | inconclusive: 29.1 µM [activator, single point]
O=C(c1sc2cc([N+](=O)[O-])ccc2c1Cl)N1CCCCC1 | inactive
Cc1nc(SCC(=O)N2CCCc3ccccc32)c2oc3ccccc3c2n1 | inactive
O=C1c2ccccc2CCC12N=NCC2c1ccc(Cl)cc1 (stereo not given) | inactive
COC(=O)c1c(C)[nH]c(C(=O)C(C)OC(=O)C2CC2C)c1C (stereo not given) | inactive
Cc1ccc(NC(=O)COC(=O)c2sccc2C)cc1S(=O)(=O)N1CCOCC1 | inconclusive: 32.6 µM [inhibitor, partial curve, poor fit]
Cn1ccnc1SCC(=O)c1ccc(Cl)cc1 | inconclusive: 29.1 µM [activator, single point]
O=C(Nc1ccc(Cl)c(S(=O)(=O)Nc2ccccc2Cl)c1)c1cccs1 | inactive
O=C(O)COc1ccc(/C=N/n2c(COc3ccccc3)nc3ccccc3c2=O)cc1 | inconclusive: 29.1 µM [activator, single point]
Cc1ccc(NC(=O)CSc2nccn2Cc2ccco2)cc1 | inconclusive: 14.6 µM [activator, partial curve]
Cc1ccc(N2C(=O)c3n[nH]c(C)c3C2c2ccco2)cc1 (stereo not given) | inconclusive: 16.4 µM [activator, partial curve]
COc1ccc(NC(=O)c2cc3ccc(O)cc3o/c2=N\O)cc1 | inconclusive: 2.31 µM [activator, partial curve]
Cc1ccc(C)c(S(=O)(=O)N2CCCOC2CNC(=O)C(=O)NC2CCCCC2)c1 (stereo not given) | inconclusive: 16.4 µM [inhibitor, single point]
COc1ccc(NC(=O)CCCC(=O)c2ccccc2)cc1 | inconclusive: 25.9 µM [inhibitor, single point]
O=C(Nc1ccc2c(c1)OCCO2)C1CCCC1 | inconclusive: 14.1 µM [activator, partial curve]
CC(C(=O)OCC(=O)N(C)C1(C#N)CCCCC1)N1C(=O)c2ccccc2C1=O (stereo not given) | inactive
Cc1sc2nc(-c3ccccc3)oc(=O)c2c1C | inactive
Cc1cnc(CN(C)C(=O)CC2C(=O)NCCN2CCCc2ccccc2)[nH]1 (stereo not given) | inactive
O=C(Nc1ccncc1)c1ccc(Cl)c([N+](=O)[O-])c1 | inactive
